Among all 400,000 compounds or so, about 13,000 (3.2%) were called active. Inconclusive means that the source gave no clear call. Such entries were picked first, then a sample of the others. The call rests on the fitted dose curve; in most records, active means well fitted cell-killing curve with a large enough effect; inconclusive means small, poorly fitted or top-dose-only effect, or effect the other way; inactive means flat fitted curve, though single readings scatter. Potencies of inconclusive entries are doubtful fits and often do not repeat.
Experiment: qHTS assay for MDR1-selective chemotherapeutics: Primary screen using the drug-selected MDR subline cells KB-V1; further: nearly all actives have a fitted effect of over 60% in size
Details: KB-V1 MDR cells viability, CellTiter-Glo, 72 h; activity change, negative = cytotoxicity: at 46.1 µM (top of the series)
Procedure, shortened: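 KB-V1, DMEM (no phenol red) + 10% FBS; cpd pin-transferred, titration series; 72 h, 37 degrees C; CellTiter-Glo, luminescence. Data normalized, curve-fit.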
On the % scale 0 is the no-effect control and ±100 the full control effect; potency means the concentration at half of the fitted maximal effect.

Question: For `CC(=O)c1c(-c2ccccc2)c2cc(Cl)ccc2n(C)c1=O`, which Potency is on record?
Answer: The Potency was inconclusive: 16.4 µM [cytotoxic, single point].

Question: For `CC[C@]12c3[nH]c4cc(-c5ccco5)ccc4c3CCN1C(=O)[C@@H](CC(=O)NCCc1ccccn1)C[C@@H]2C(=O)N1CCN(C(=O)C2CC2)CC1`, which Potency is on record?
Answer: Its Potency is “inactive”.

Question: Which Potency does the source give for `COc1ccc(OC)c(-n2nnnc2SCC(=O)Nc2ccc(C(=O)N3CCCCC3)cc2)c1` here?
Answer: The Potency was inconclusive: 20.6 µM [cytotoxic, single point].

Question: Which activity change, negative = cytotoxicity does the source give for `O=C1NNC(c2ccccc2)=N/C1=C\c1ccccc1Cl` here?
Answer: Its activity change, negative = cytotoxicity is inconclusive: -1.53%.

Question: With `COc1cc(CC(=O)NCc2ccc3c(c2)OCO3)cc(OC)c1OC` as the compound, how does the Potency read?
Answer: Its Potency is “inactive”.

Question: For `CN(C)c1ccc(C(=O)N2CCCC(N3CCN(Cc4ccc5c(c4)OCO5)CC3)C2)cc1` (configuration not stated), which Potency is on record?
Answer: The Potency was “inactive”.

Question: Which Potency does the source give for `O=C(NC(=S)NCC1CCCO1)c1ccc(Cl)cc1Cl` (configuration not stated) here?
Answer: The Potency was “inactive”.

Question: For `O[C@H]1CN(Cc2cccs2)[C@@H](c2ccccc2)C[C@@H]1n1cc(C2CC2)nn1`, which Potency is on record?
Answer: The Potency was “inactive”.

Question: Which Potency does the source give for `O=C(Nc1ccnn1C1CCN(Cc2ccccc2OC(F)F)CC1)c1cccc(F)c1` here?
Answer: The Potency was inconclusive: 0.116 µM [rising, full curve].

Question: For `CCCCn1c(=N)c(S(=O)(=O)c2ccc(Cl)cc2)cc2c(=O)n3cccc(C)c3nc21`, which Potency is on record?
Answer: Its Potency is inconclusive: 5.17 µM [cytotoxic, partial curve].

Question: With `CN(C)S(=O)(=O)c1cccc(COC(=O)CNC(=O)c2ccc(Br)o2)c1` as the compound, how does the Potency read?
Answer: Its Potency is inconclusive: 29.1 µM [rising, partial curve, poor fit].

Question: With `O=C(O)c1cc([N+](=O)[O-])ccc1Oc1ccccc1` as the compound, how does the activity change, negative = cytotoxicity read?
Answer: Its activity change, negative = cytotoxicity is inconclusive: -16.9%.

Question: For `COCCCN(C(=O)CCSc1ccc(F)cc1)c1c(N)n(Cc2ccccc2)c(=O)[nH]c1=O`, which Potency is on record?
Answer: Its Potency is “inactive”.

Question: With `COC(=O)Nc1ccc(S(=O)(=O)N2CCN(CCN3C(=O)C4C5C=CC(C5)C4C3=O)CC2)cc1` (configuration not stated) as the compound, how does the Potency read?
Answer: The Potency was inconclusive: 11.6 µM [cytotoxic, partial curve].

Question: Which Potency does the source give for `COc1ccccc1CNC(=O)CCc1c(C)nc2c(c(C)nn2-c2ccc(C)c(C)c2)c1C` here?
Answer: The Potency was inconclusive: 29.1 µM [rising, partial curve, poor fit].

Question: Which Potency does the source give for `CN(C)CCN(Cc1ccccc1)C(c1cc2ccccc2o1)c1nnnn1C(C)(C)C` (configuration not stated) here?
Answer: The Potency was inconclusive: 8.2 µM [cytotoxic, partial curve].

Question: Which Potency does the source give for `Cc1ccc(-c2nc(CN(CC3CCC3)CC3CCCO3)c(C)o2)s1` (configuration not stated) here?
Answer: Its Potency is “inactive”.

Question: For `CC1CCC(N(C)C(=O)CN2C(=O)NC(c3ccccc3)(c3ccccc3)C2=O)CC1` (configuration not stated), which Potency is on record?
Answer: The Potency was “inactive”.

Question: For `CC(=O)NNC(=S)NC(=O)C(c1ccccc1)c1ccccc1`, which Potency is on record?
Answer: The Potency was “inactive”.

Question: For `CCc1nc(SCc2ccccc2)n[nH]1`, which Potency is on record?
Answer: Its Potency is “inactive”.

Question: With `Cc1noc(C)c1COc1ccc(C(=O)NNC(=O)c2ccccc2)cc1` as the compound, how does the Potency read?
Answer: Its Potency is active: 7.31 µM.

Question: Which Potency does the source give for `Cc1ccccc1CN1Cc2cccc3c2[C@H](C=CC3)CC1=O` here?
Answer: The Potency was inconclusive: 16.4 µM [cytotoxic, partial curve, poor fit].

Question: For `O=C(O)c1ccccc1`, which Potency is on record?
Answer: Its Potency is inconclusive: 29.1 µM [rising, single point].

Question: With `Cc1cccc(OC2(c3ccccc3)OC(=O)c3ccccc32)c1C` (configuration not stated) as the compound, how does the Potency read?
Answer: Its Potency is active: 14.6 µM.

Question: For `COc1ccccc1CNc1nc(NCCNC(C)=O)c2sccc2n1`, which Potency is on record?
Answer: Its Potency is “inactive”.

Question: For `CCc1ccc(-c2cc(C(=O)Nn3cnnc3)c3ccccc3n2)cc1`, which Potency is on record?
Answer: Its Potency is inconclusive: 23.1 µM [cytotoxic, single point].

Question: For `CCOc1ccccc1C(=O)NCCN1CCC(n2c(=O)[nH]c3ccccc32)CC1`, which Potency is on record?
Answer: The Potency was inconclusive: 18.4 µM [cytotoxic, partial curve].

Question: With `C=CCSc1nc2ccccc2c2nc(-c3ccccc3)nn12` as the compound, how does the Potency read?
Answer: Its Potency is inconclusive: 9.2 µM [cytotoxic, partial curve, poor fit].

Question: Which Potency does the source give for `Cc1ccc2nc(SC(C(=O)Nc3ccc(F)cc3)c3ccccc3)[nH]c2c1` (configuration not stated) here?
Answer: Its Potency is inconclusive: 25.9 µM [cytotoxic, single point].

Question: Which Potency does the source give for `Cc1cc(C)cc(CC(=O)N2CCC2(C)C(=O)NS(=O)(=O)Cc2ccccc2)c1` (configuration not stated) here?
Answer: Its Potency is “inactive”.

Question: With `O=C(NCCN1CCOCC1)c1ccc(/C=C2\Sc3ccccc3N(Cc3ccccc3F)C2=O)cc1` as the compound, how does the Potency read?
Answer: The Potency was inconclusive: 20.6 µM [cytotoxic, single point].

Question: For `O=C(Nc1ccccc1N1CCN(C(=O)c2ccccc2)CC1)c1cc(Br)ccc1Cl`, which Potency is on record?
Answer: The Potency was active: 23.1 µM.

Question: With `CCc1ccc(NC(=O)CSc2nc3c(sc4ccccc43)c(=O)n2CCCOC)cc1` as the compound, how does the Potency read?
Answer: Its Potency is “inactive”.

Question: For `Cc1ccc(CNC(=O)c2cnc(N3CCCCC3)c3ccccc23)cc1`, which Potency is on record?
Answer: The Potency was “inactive”.

Question: For `CC(C)C(NC(=O)c1ccco1)C(=O)OCc1cc([N+](=O)[O-])cc2c1OCOC2` (configuration not stated), which Potency is on record?
Answer: Its Potency is inconclusive: 23.1 µM [cytotoxic, single point].

Question: With `CN1CCC2(CC1)NC(=O)NC2=O` as the compound, how does the Potency read?
Answer: The Potency was inconclusive: 9.2 µM [rising, partial curve, poor fit].

Question: With `CSCCC(NC(=O)c1ccc(Cl)cc1Cl)C(=O)OCC(N)=O` (configuration not stated) as the compound, how does the Potency read?
Answer: The Potency was inconclusive: 20.6 µM [rising, single point].

Question: Which Potency does the source give for `Cc1ccc(C(=O)Nc2ccccc2C(=O)O)cc1S(=O)(=O)Nc1ccccc1` here?
Answer: The Potency was “inactive”.

Question: Which Potency does the source give for `O=S(=O)(c1ccc2ncn(O)c2c1)N1CCOCC1` here?
Answer: Its Potency is inconclusive: 29.1 µM [cytotoxic, single point].

Question: Which Potency does the source give for `COc1ccc(NC(=O)Cn2c(=O)n(Cc3ccco3)c(=O)c3cc(OC)c(OC)cc32)cc1` here?
Answer: Its Potency is inconclusive: 29.1 µM [cytotoxic, single point].

Question: Which Potency does the source give for `CCC/C(O)=C1\C(=O)CC(c2ccccc2)CC1=NC` (configuration not stated) here?
Answer: The Potency was “inactive”.

Question: Which Potency does the source give for `Cc1ccc(C2(c3ccc(C)cc3)NC(=O)N(CC(N)=O)C2=O)cc1` here?
Answer: The Potency was inconclusive: 23.1 µM [rising, partial curve, poor fit].

Question: With `O=S(=O)(c1cccc(Cl)c1)N1CCSc2ccccc21` as the compound, how does the Potency read?
Answer: Its Potency is “inactive”.

Question: Which Potency does the source give for `Cc1cccc(C(=O)OCN2C(=O)c3ccccc3C2=O)c1[N+](=O)[O-]` here?
Answer: Its Potency is inconclusive: 29.1 µM [rising, single point].

Question: With `COc1cccc(CNc2nccn(-c3cc(C)cc(C)c3)c2=O)c1` as the compound, how does the Potency read?
Answer: Its Potency is inconclusive: 18.4 µM [cytotoxic, single point].

Question: For `COc1ccc(C(=O)NC(=S)Nc2ccc3oc(=O)ccc3c2)cc1OC`, which Potency is on record?
Answer: The Potency was inconclusive: 5.8 µM [cytotoxic, partial curve].

Question: Which Potency does the source give for `O=C(c1ccccc1)c1ccc(OCCn2cnc3ccccc3c2=O)cc1` here?
Answer: The Potency was inconclusive: 18.4 µM [cytotoxic, single point].

Question: Which Potency does the source give for `COc1ccc2cc(-c3nc(Cl)c4c5c(sc4n3)CCCC5)c(=O)oc2c1` here?
Answer: The Potency was inconclusive: 9.2 µM [rising, partial curve].

Question: Which Potency does the source give for `CCOC(=O)c1cc2sccc2n1CC(=O)N1CCCc2ccccc21` here?
Answer: Its Potency is inconclusive: 29.1 µM [cytotoxic, single point].

Question: Which Potency does the source give for `COc1ccc(C(C)=O)cc1COC(=O)c1ccc2c(c1)OCCO2` here?
Answer: Its Potency is “inactive”.

Question: With `CN(C(=O)COC(=O)/C=C/c1ccc2ccccc2n1)c1c(N)n(Cc2ccccc2)c(=O)[nH]c1=O` as the compound, how does the Potency read?
Answer: Its Potency is “inactive”.

Question: With `Cc1ccc(-n2ncc(C(=O)NCCN3CCOCC3)c2C2CCN(C(=O)OC(C)(C)C)CC2)c(C)c1` as the compound, how does the Potency read?
Answer: The Potency was “inactive”.

Question: Which Potency does the source give for `COc1ccc(C2N(c3ccc(Cl)cc3)N=C(C(C)=O)N(C)N2C(C)=O)cc1` (configuration not stated) here?
Answer: Its Potency is inconclusive: 9.2 µM [cytotoxic, partial curve].

Question: For `C=CCc1c(NCCO)nc(C)[nH]c1=O`, which Potency is on record?
Answer: Its Potency is “inactive”.

Question: With `COc1ccc([N+](=O)[O-])cc1-c1[nH]c(-c2ccc(C(=O)O)cc2)nc1-c1ccccc1` as the compound, how does the Potency read?
Answer: The Potency was inconclusive: 29.1 µM [rising, single point].

Question: Which Potency does the source give for `Cc1cc(C)c(C(=O)N2CCCC(Nc3ccc(C)c(C)c3)C2)o1` (configuration not stated) here?
Answer: Its Potency is inconclusive: 4.11 µM [cytotoxic, partial curve, poor fit].

Question: For `CC(C)C(NC(=O)c1ccc(C(C)(C)C)cc1)C(=O)NCC(c1ccccc1)N(C)C` (configuration not stated), which Potency is on record?
Answer: Its Potency is inconclusive: 5.8 µM [cytotoxic, partial curve].

Question: For `Cc1cc2c(cc1S(=O)(=O)CCC(=O)N1CCCC(C)C1)OCC(=O)N2` (configuration not stated), which activity change, negative = cytotoxicity is on record?
Answer: Its activity change, negative = cytotoxicity is inconclusive: 0.387%.

Question: For `COc1ccc(Cc2nnc(NC(=O)c3cccc([N+](=O)[O-])c3C)s2)cc1`, which Potency is on record?
Answer: The Potency was active: 20.6 µM.

Question: For `C[C@H](CO)N1C[C@H](C)[C@H](CN(C)C(=O)Nc2ccc3c(c2)OCO3)Oc2ncc(Br)cc2C1=O`, which Potency is on record?
Answer: The Potency was “inactive”.

Question: Which Potency does the source give for `CCC(C(=O)Nc1ccc2[nH]ncc2c1)c1ccccc1` (configuration not stated) here?
Answer: The Potency was “inactive”.

Question: For `N#Cc1cc2ccccc2nc1SCc1cccnc1`, which Potency is on record?
Answer: Its Potency is inconclusive: 16.4 µM [cytotoxic, single point].

Question: With `CCN1CCN(CCOc2ccc(Cl)cc2)CC1` as the compound, how does the Potency read?
Answer: The Potency was “inactive”.

Question: For `C[C@@H]1CCCCO[C@@H](CN(C)S(=O)(=O)c2ccc(F)cc2)[C@@H](C)CN([C@H](C)CO)C(=O)c2cc(NC(=O)c3ccccc3)ccc2O1`, which Potency is on record?
Answer: The Potency was “inactive”.

Question: With `C/C=C/C(=O)Nc1cccc(C2=NOC3(C2)C[C@H](C(N)=O)N(C(=O)/C=C/C)C3)c1` (some centres not stated) as the compound, how does the Potency read?
Answer: Its Potency is inconclusive: 4.61 µM [rising, partial curve, poor fit].

Question: Which Potency does the source give for `CCc1ccc(Nc2nnc(SCC(=O)NC(=O)c3cccn3C)s2)cc1` here?
Answer: The Potency was inconclusive: 29.1 µM [cytotoxic, single point].

Question: Which Potency does the source give for `CCN(C(=O)c1cc(Cl)ccc1Cl)C1CCS(=O)(=O)C1` (configuration not stated) here?
Answer: Its Potency is active: 18.4 µM.

Question: Which Potency does the source give for `Cc1ncc(CSc2nnnn2-c2ccccc2)c(N)n1` here?
Answer: The Potency was inconclusive: 25.9 µM [cytotoxic, partial curve].

Question: Which Potency does the source give for `COC(=O)C[C@@H]1C=C[C@@H](NC(=O)c2ccccc2F)[C@@H](CO)O1` here?
Answer: The Potency was “inactive”.

Question: Which Potency does the source give for `CC(=O)c1cc(NC(=O)c2ccc(C)cc2)c(=O)oc1C` here?
Answer: Its Potency is “inactive”.

Question: For `O=C(Nc1ccc(F)cc1)C(CCc1ccccc1)N1CCN(Cc2c(F)cccc2Cl)CC1` (configuration not stated), which Potency is on record?
Answer: The Potency was inconclusive: 9.2 µM [cytotoxic, partial curve].

Question: Which Potency does the source give for `COc1ccccc1Nc1nc(N2CCOCC2)nc(N2CCOCC2)n1` here?
Answer: The Potency was “inactive”.

— PubChem BioAssay AID1347076 (National Center for Advancing Translational Sciences (NCATS), 2019)
